Data taken from PubChem BioAssay AID912, deposited by NCATS (2007).

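Uptake of anthrax lethal toxin into cultured cells, read by FRET (460/530 nm ratio) and reported from the 460 nm channel; the cell line is not named here.
Each compound was tested as a concentration series from about 0.0005 to 40 µM.
The number is the fitted AC50 of the 460 nm signal alone; lower values mean a more potent effect. A falling signal goes with compounds filed as inhibitors or cytotoxic, a rising one with activators or fluorescent compounds (inferred from the filed classes).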

Values are in nM.
Common to all entries: measured here: 460 nm channel.
This is a side read-out of the assay, for part of the compounds, not drawn at random.
Potencies fitted to partial, single-point or poorly fitting curves are rough.
The first word of each remark tells which way the curve ran; it can be opposite to the aim of the assay.

Result for COc1ccc(C(c2nnnn2Cc2cccs2)N2CCN(c3ccccc3)CC2)cc1OC (stereo unspecified) was AC50 12589 nM (rising, single point).
Result for CCOc1cccc2cc(-c3nnc(NCc4ccco4)s3)c(=O)oc12 was AC50 19952 nM (rising, single point).
Result for COCCSc1ccccc1C(=O)Nc1cc(C)on1 was AC50 3981 nM (rising, single point).
Result for O=[N+]([O-])c1ccc2c3c(cccc13)CC2 was AC50 15848 nM (falling, partial curve, poor fit).
Result for CCn1c(C(O)c2ccc(C)cc2)nc2ccccc21 (stereo unspecified) was AC50 100 nM (falling, full curve, poor fit).
Result for CCOC(=O)Cn1c(=O)oc2cc(S(=O)(=O)NCCCc3ccccc3)ccc21 was AC50 31622 nM (falling, single point).
Result for Cn1c(C(C#N)C(=O)c2ccco2)nc2ccccc21 (stereo unspecified) was AC50 25118 nM (rising, single point).
Result for O=C(Nc1ccc2c(c1)OCO2)[C@@H]1[C@@H]2C(=O)N(C3CCCCC3)C(=O)[C@@H]2C2c3ccccc3C=CN21 (stereo partly specified) was AC50 3162 nM (rising, single point).
Result for O=C(OCCN1CCCC1)C1(c2ccccc2)CCCC1 was AC50 5012 nM (falling, single point).
Result for O=C(Nc1ccc2c(c1)OCO2)C1CCCCN1S(=O)(=O)c1ccc(F)cc1 (stereo unspecified) was AC50 31622 nM (rising, single point).
Result for O=C(Nc1cccc2nsnc12)c1cccs1 was AC50 12589 nM (rising, single point).
Result for Cc1cc(N=Cc2c(O)n(-c3ccc4c(c3)OCO4)c(=O)c3ccccc23)ccn1 was AC50 2512 nM (falling, partial curve).
Result for CCCCNC1C(CC)C(CCC)C(C#N)(C#N)C1(C#N)C#N (stereo unspecified) was AC50 31622 nM (falling, single point).
Result for CCC(C)c1ccc(O)c(NC(=O)c2cncc(Br)c2)c1 (stereo unspecified) was AC50 10000 nM (falling, partial curve).
Result for Nc1ccc(-c2nc3ccc(-c4nc5ccccc5o4)cc3[nH]2)cc1 was AC50 10000 nM (rising, partial curve).
Result for Cc1ccc(Cn2c(=N)c(C(=O)NCc3ccco3)cc3c(=O)n4ccccc4nc32)cc1 was AC50 6310 nM (rising, partial curve).
Result for Cc1nnc(NC(=O)C2CCCO2)s1 (stereo unspecified) was AC50 125.9 nM (falling, full curve, poor fit).
Result for COc1cccc2cc(-c3nc(-c4cccs4)cs3)c(=O)oc12 was AC50 12589 nM (rising, single point).
Result for COc1ccc2ccccc2c1C1CC(=O)N2CN(Cc3ccco3)CSC2=C1C#N (stereo unspecified) was AC50 15848 nM (falling, partial curve).
Result for CCOc1ccc(C(=O)c2ccc(OCC)c(N)c2)cc1N was AC50 10000 nM (falling, partial curve).
Result for CC(=O)c1cccc(NC(=O)Nc2ccc(C(=O)N3CCOCC3)cc2)c1 was AC50 15848 nM (falling, partial curve, poor fit).
Result for CC1=NCCc2c1[nH]c1cc(O)ccc21 was AC50 10000 nM (rising, partial curve).
Result for FC(F)(F)c1ccccc1-n1ccnc1 was AC50 5012 nM (falling, partial curve, poor fit).
Result for O=C(NCc1ccco1)Nc1cccs1 was AC50 10000 nM (falling, partial curve).
Result for CCCc1cc(=O)n2[nH]c(NCc3c(F)cccc3Cl)nc2n1 was AC50 3.162 nM (falling, full curve).
Result for COc1ccccc1N(CCC#N)C(=O)CSc1ccc2c(c1)OCCO2 was AC50 100 nM (falling, full curve, poor fit).
Result for COc1cccc(Cn2c(=O)c(-c3ccc(F)cc3)nc3cnc(N(C)C)nc32)c1 was AC50 631 nM (rising, full curve).
Result for C[C@H]1CCCC(=O)CCC/C=C/c2cc(O)cc(O)c2C(=O)O1 was AC50 12589 nM (falling, full curve, poor fit).
Result for CN1CCN(/C=C2\SC(=S)NC2=O)CC1 was AC50 3.981 nM (falling, full curve, poor fit).
Result for COC(=O)C(Cc1ccc(O)cc1)NC(=O)c1ccccc1OC (stereo unspecified) was AC50 6310 nM (rising, partial curve).
Result for O=C(c1csnn1)N1CCC2(CCN(Cc3ccccc3)CC2)CC1 was AC50 25118 nM (falling, single point).
Result for Cc1nc2sccn2c(=O)c1CCN1CCC(=C(c2ccccc2)c2ccc(F)cc2)CC1 was AC50 3981 nM (falling, full curve).

Repeated from the top, 4 entries:

| SMILES | AC50 (nM) | curve as filed |
|---|---|---|
| `COc1ccc(C(c2nnnn2Cc2cccs2)N2CCN(c3ccccc3)CC2)cc1OC` (stereo unspecified) | 12589 | rising, single point |
| `CCOc1cccc2cc(-c3nnc(NCc4ccco4)s3)c(=O)oc12` | 19952 | rising, single point |
| `COCCSc1ccccc1C(=O)Nc1cc(C)on1` | 3981 | rising, single point |
| `O=[N+]([O-])c1ccc2c3c(cccc13)CC2` | 15848 | falling, partial curve, poor fit |